Each structure is given as a SMILES string. Some of the results follow. Shown are side measurements of this screen, not its main read-out; they come without a call. Most of these compounds were active or inconclusive in the main read-out, so they are no random draw. Potencies come from curve fits of mixed quality, noted in brackets.

The test can be described thus: qHTS Assay for Lipid Storage Modulators in Drosophila S3 Cells.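 For cell number change: cells counted by Cell Tracker Red CMTPX staining in the red channel.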 Conditions: BODIPY lipid droplet fluorescence, 18-24 h; for cell number change: measured here: cell count max response, cells fed with added oleic acid. The gist of the method:
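Laser-scanning cytometry quantifies lipid droplet accumulation (500–530 nm total intensity; droplet/cell object ratio) in oleic acid-fed (400 uM added) Drosophila S3 cells treated with a concentration series. 20 uM Triacsin C defined 100% inhibition.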
(qHTS replaces the single test concentration by a dilution series.)

The mark [1] stands for this setting: measured here: cell number channel AC50, cells fed with added oleic acid.
The mark [2] stands for this setting: measured here: lipid fluorescence (Fed channel) AC50, cells fed with added oleic acid.

For `CCCn1c(SCC(=O)Nc2cccc(C(=O)OC)c2)nnc1-c1cccnc1`, the cell number change was determined as 20.6%.

`CC(=O)N1CCN(C(=O)c2ccc(S(=O)(=O)Nc3ccccc3C)cc2)CC1`: the cell number change was -34.6%. The AC50 under setting [1] is 18400 nM [falling, single point].

For `Cc1ccc(N=C2NC(=O)/C(=C\c3cccs3)S2)cc1C`, the cell number change worked out at 22.7%. Further, the AC50 under setting [1] was 2310 nM [rising, full curve, poor fit]. Also, the AC50 under setting [2] was 8200 nM [rising, partial curve].

Regarding `Cc1cccc(C(=O)Nc2ccnc(-c3cccnc3)n2)c1`, the cell number change stood at 10.5%. Besides, under setting [2], the AC50 is 517 nM [rising, partial curve, poor fit].

Consider `COc1ccc(CNC(=O)COC(=O)CCOc2ccc(C)cc2)cc1`, for which the cell number change worked out at 75%. Further, the AC50 under setting [1] is 16400 nM [rising, single point].

As for `Cc1ccc(CCNC(=O)C2CCC(=O)N(Cc3ccccc3F)C2)o1` (stereo not drawn), the cell number change is -6.1%.

As for `Cc1cccc(NC(=O)CSc2ncnc3sc(C)c(C)c23)n1`, the cell number change is -22.1%. Further, the AC50 under setting [2] was 2910 nM [falling, partial curve].

Turning to `CCOc1ccc(-c2nnc3ccc(SCc4ccc(C(=O)OC)o4)nn23)cc1`, the cell number change was -19%. The AC50 under setting [2] was 6510 nM [rising, partial curve].

On to `CCOC(=O)[C@H]1[C@H]2COc3ccccc3[C@@H]2N2C(=O)c3c(C)cc(C)cc3NC(=O)[C@@]12C`, for which the cell number change was -29.3%.

Regarding `BrC(/C=N/Nc1nc(N2CCOCC2)nc(N2CCOCC2)n1)=C/c1ccccc1`, the cell number change is -19.5%. For the same compound, the AC50 under setting [2] is 32600 nM [falling, single point].

For the compound `COC(=O)c1ccccc1S(=O)(=O)NNC(=O)c1ccccc1-n1cccc1`, the cell number change was -20.8%. Under setting [2], the AC50 is 22400 nM [falling, single point].

On to `O=C(C/C=N\OCc1c(Cl)cccc1Cl)Oc1ccc(Cl)cc1Cl`, for which the cell number change was -7.09%.

With `CN(C)Cc1c(O)ccc2c(=O)c(-c3ccc(Cl)cc3)coc12`, the cell number change stood at 3.17%. In addition, the AC50 under setting [2] was 18400 nM [falling, partial curve, poor fit].

As to `Cc1cc(=O)c(C(=O)Nc2cccc(N3CCCC3=O)c2)nn1-c1ccccc1F`, the cell number change is -10.1%. In addition, the AC50 under setting [1] was 651 nM [falling, partial curve, poor fit]. Moreover, the AC50 under setting [2] is 580 nM [falling, partial curve, poor fit].

For the compound `CCN(CC)C(=O)C(=O)Nc1ccc(Oc2ccccc2)cc1`, the cell number change is -3.12%. In addition, under setting [2], the AC50 was 2590 nM [falling, partial curve, poor fit].

In the case of `Cc1nn(-c2ccccc2)c(C)c1NC(=O)COC(=O)CCCOc1ccccc1`, the cell number change turned out to be 1.31%. In addition, the concentration at half-maximal activity (AC50) under setting [2] was 103 nM [falling, full curve, poor fit].

For the compound `CC(=O)c1cccc(S(=O)(=O)Nc2ccc3nc(C)sc3c2)c1`, the cell number change is 17.2%.

As to `O=C(O)c1ccccc1C(=O)c1ccc(Br)s1`, the cell number change turned out to be 7.59%. Moreover, the half-maximal activity concentration (AC50) under setting [2] was 23.1 nM [falling, full curve].

As to `O=C(N1CCCCC1)N1CCN(C(c2ccccc2)c2ccccc2)CC1`, the AC50 under setting [1] was 146 nM [falling, full curve, poor fit].

Take `Cc1csc(NC(=O)CSc2ccc([N+](=O)[O-])cn2)n1`: the cell number change is -40.1%. For the same compound, the AC50 under setting [1] was 35500 nM [falling, single point].

As for `COc1ccc(C)cc1N(CC(=O)Nc1ccc(S(=O)(=O)N2CCCC2)cc1)S(C)(=O)=O`, the cell number change was -15%. Besides, the AC50 under setting [1] is 1840 nM [falling, partial curve]. Moreover, the AC50 under setting [2] is 10300 nM [falling, partial curve].

For `CCOc1ccc(C(=O)NC(=S)Nc2ccccc2N2CCCCC2)cc1[N+](=O)[O-]`, the cell number change came out at 16.3%. Besides, under setting [2], the AC50 was 411 nM [rising, full curve].

As for `CCCCN(CCCC)c1nc2ccccc2nc1NS(=O)(=O)c1ccc(NC(C)=O)cc1`, the cell number change was -4.07%.

Turning to `O=C(Nc1cc(C(F)(F)F)ccc1N1CCCC1)c1ccc2c(c1)OCO2`, the AC50 under setting [2] is 6510 nM [rising, single point].

Take `Cc1nc(C)c(NC(=O)OC(C)C)cc1NC(=O)OC(C)C`: the cell number change is -4.76%.

Take `CCN(CC(=O)Nc1c(F)cccc1F)C(=O)C1CCN(S(=O)(=O)c2ccc(F)cc2)CC1`: the cell number change turned out to be 0.549%. Also, the AC50 under setting [2] was 103 nM [rising, full curve, poor fit].

`COC(=O)CSC1=C(C#N)C(c2ccc(C)cc2)C2=C(CCCC2=O)N1` (stereo not drawn): the cell number change is 2.67%. Moreover, the AC50 under setting [2] was 29100 nM [rising, single point].

In the case of `O=C(COC(=O)c1ccco1)NCc1ccc2c(c1)OCO2`, under setting [2], the AC50 was 16400 nM [rising, partial curve, poor fit].

For `COc1ccc(/C=C2\Oc3cc(OCC(=O)N4CCC[C@H]4CO)ccc3C2=O)c(OC)c1`, the cell number change was -27.2%. For the same compound, under setting [2], the AC50 was 18400 nM [falling, single point].

For `CCOc1cc2[nH]c(=S)n(CC3CCCO3)c(=O)c2cc1OCC` (stereo not drawn), the AC50 runs as follows: under setting [1], 411 nM [rising, full curve]; under setting [2], 580 nM [rising, full curve].

With `CCN1c2ccccc2-c2nc3ccccc3n2C1c1ccccn1` (stereo not drawn), the cell number change came out at 14%. For the same compound, the AC50 under setting [2] was 3260 nM [rising, full curve, poor fit].

For `COc1cccc(OCCCCN2CC(C)OC(C)C2)c1` (stereo not drawn), the cell number change was determined as 49.8%.

Consider `C[C@@H](CSc1ccccc1)CN1CC[C@H](NC(=O)OCc2ccccc2)CCC1=O`, for which, under setting [2], the AC50 was 29100 nM [falling, single point].

For the compound `CC1CCCCC1NC(=O)Cn1c(CN2CCCCC2)nc2ccccc2c1=O` (stereo not drawn), the cell number change came to 15.2%. The AC50 under setting [1] was 920 nM [rising, partial curve, poor fit]. Moreover, the AC50 under setting [2] was 2060 nM [rising, partial curve].

For the compound `Cc1cc(NC(=O)c2noc3c2CCCCC3)nn1Cc1ccc(Cl)cc1`, the cell number change was -0.785%. For the same compound, the AC50 under setting [2] is 6510 nM [rising, partial curve].

With `O=C(COc1ccccc1Cc1ccccc1)Nc1cccc(S(=O)(=O)N2CCOCC2)c1`, the cell number change is -15%.

On to `O=C(N/N=C/c1cccc([N+](=O)[O-])c1)c1cc2ccccc2o1`, for which the cell number change stood at 22.2%. Besides, the AC50 under setting [2] is 103 nM [rising, full curve, poor fit].

In the case of `CCOC(=O)N1CCC(NC(=O)c2cnn3c(C(F)(F)F)cc(-c4cccc(OC)c4)nc23)CC1`, the cell number change was found to be 2.15%. Also, under setting [2], the AC50 is 18400 nM [rising, single point].

For the compound `CS(=O)(=O)c1cccc(NC(=O)CSc2nnc3n2CCCCC3)c1`, the cell number change was -31.9%. Besides, the AC50 under setting [1] is 9200 nM [falling, partial curve, poor fit]. Besides, the AC50 under setting [2] is 4.61 nM [rising, full curve, poor fit].

As for `O=C(NNC(=O)c1sccc1-n1cccc1)c1ccc(F)cc1`, the cell number change is -15.9%. Moreover, the AC50 under setting [1] was 5.8 nM [falling, full curve, poor fit].

For `C/C(=N\NC(=S)Nc1ccccc1)C1Cc2ccccc2C(=O)O1` (stereo not drawn), the AC50 under setting [2] was 580 nM [rising, single point].

`COCCn1c(Sc2nc(C)cs2)nc2c1c(=O)[nH]c(=O)n2C`: the cell number change was 3.9%.

In the case of `COc1ccc2c(c1)OC1=C(C(=O)CCC1)C2C1=C(O)CCCC1=O` (stereo not drawn), the cell number change is -32.2%. The AC50 under setting [1] was 651 nM [falling, partial curve].

With `Nc1cccc2c1C(=O)N(C(=O)c1cccc(S(=O)(=O)N3CCCCCC3)c1)C2=O`, the cell number change is -8.69%. Moreover, the AC50 under setting [2] is 3660 nM [falling, partial curve].

`COc1ccc(S(=O)(=O)N(C)c2ccc(C(=O)NCc3ccco3)cc2)cc1OC`: the AC50 under setting [2] is 2910 nM [rising, single point].

Consider `CC(=O)c1cccc(NC(=O)C2CCN(S(=O)(=O)c3cccs3)CC2)c1`, for which the cell number change came out at 1.05%. Further, the AC50 under setting [2] is 6.51 nM [rising, full curve, poor fit].

Take `NS(=O)(=O)c1ccc2nc(NC(=O)c3ccc(Br)o3)sc2c1`: the cell number change was -28.2%.

Consider `COc1ccc(NC(=O)COC(=O)c2ccc(C)c(S(=O)(=O)N3CCCCC3)c2)cc1`, for which the cell number change is -0.937%. In addition, the AC50 under setting [2] was 29100 nM [falling, single point].

Consider `Cc1ccc(CNC(=O)Nc2cccc(C)c2)cc1`, for which the cell number change was -17%. In addition, the AC50 under setting [1] is 82 nM [falling, full curve, poor fit]. In addition, the AC50 under setting [2] is 92 nM [falling, full curve, poor fit].

`Cc1ccc(NC(=O)C2OCCc3ccccc32)cc1Cl` (stereo not drawn): the cell number change is -1.23%. For the same compound, the AC50 under setting [1] is 103 nM [falling, full curve, poor fit].

Regarding `CC1CC(C)(C)NC(=S)N1CCC(=O)N1CCN(c2ccccc2)CC1` (stereo not drawn), the cell number change stood at 13.6%. The AC50 under setting [2] is 29100 nM [rising, single point].

For the compound `COc1ccc(CCNc2ccc([N+](=O)[O-])cn2)cc1`, the cell number change was -15.1%.

For `COc1ccc2c(c1)nc(N)n2Cc1ccccc1`, the cell number change came to 14.7%.

For the compound `Cc1ccc(OCC(=O)N2CCCC(CO)(CCOc3ccccc3)C2)cc1` (stereo not drawn), the AC50 under setting [2] is 29100 nM [falling, single point].

Turning to `Cc1ccc2cc(COC(=O)c3ccncc3)c(=O)[nH]c2c1`, the AC50 under setting [1] was 580 nM [rising, single point].

As to `CN(CC(=O)Nc1ccccc1Cl)C(=O)Cn1cc(C(F)(F)F)cc(Cl)c1=O`, the cell number change came out at 21%.

As for `Cc1ccc(C(=O)NC(=S)NNS(=O)(=O)c2ccc(C)cc2)cc1`, the cell number change is 5.21%. Further, the AC50 under setting [2] was 731 nM [falling, full curve, poor fit].

As for `CCOC(=O)NC(Nc1sc2c(c1C(=O)OC)CCN(C)C2)(C(F)(F)F)C(F)(F)F`, the cell number change turned out to be 38.7%.

`O=C(NCCN1CCCC1)C1CCN(S(=O)(=O)N2CCC3(CC2)OCCO3)CC1`: the AC50 under setting [2] was 23100 nM [falling, partial curve].

In the case of `CCCCc1ccc(NC(=S)N2CCN(C(=O)OCC)CC2)cc1`, the cell number change is -6.08%. Besides, the AC50 under setting [2] is 29100 nM [rising, single point].

Consider `N#CC1=C(N)NC(SCC(=O)O)=C(C#N)C12CCCC2`, for which the cell number change came to 1.02%. The AC50 under setting [2] is 29100 nM [rising, single point].

For `O=S(=O)([N-]c1nc2ccccc2nc1-[n+]1ccc(-c2ccncc2)cc1)c1ccccc1`, the cell number change was -30.6%. The AC50 under setting [2] is 23100 nM [falling, partial curve, poor fit].

For the compound `CCN(CC)CCCNC(=O)c1nn2c(C(F)(F)F)cc(-c3ccccc3)nc2c1Cl`, the cell number change is -5.07%. The AC50 under setting [2] was 29100 nM [falling, single point].

By AC50 is commonly meant the concentration at which the activity in the assay is half-maximal. A high value points to weaker potency.

Values taken from PubChem BioAssay AID2685 (National Center for Advancing Translational Sciences (NCATS), 2010).
